Test results published in patent US20100285487A1.
Results are given in words; binding and its absence hold for the method and conditions named. Some entries that bind do so weakly or less than the wild type.

Chains of the proteins cited; added tags and fusions are not shown. Lines headed by an entry give the natural chain unless they say otherwise; changes in a name come on top.
UniProt P18887: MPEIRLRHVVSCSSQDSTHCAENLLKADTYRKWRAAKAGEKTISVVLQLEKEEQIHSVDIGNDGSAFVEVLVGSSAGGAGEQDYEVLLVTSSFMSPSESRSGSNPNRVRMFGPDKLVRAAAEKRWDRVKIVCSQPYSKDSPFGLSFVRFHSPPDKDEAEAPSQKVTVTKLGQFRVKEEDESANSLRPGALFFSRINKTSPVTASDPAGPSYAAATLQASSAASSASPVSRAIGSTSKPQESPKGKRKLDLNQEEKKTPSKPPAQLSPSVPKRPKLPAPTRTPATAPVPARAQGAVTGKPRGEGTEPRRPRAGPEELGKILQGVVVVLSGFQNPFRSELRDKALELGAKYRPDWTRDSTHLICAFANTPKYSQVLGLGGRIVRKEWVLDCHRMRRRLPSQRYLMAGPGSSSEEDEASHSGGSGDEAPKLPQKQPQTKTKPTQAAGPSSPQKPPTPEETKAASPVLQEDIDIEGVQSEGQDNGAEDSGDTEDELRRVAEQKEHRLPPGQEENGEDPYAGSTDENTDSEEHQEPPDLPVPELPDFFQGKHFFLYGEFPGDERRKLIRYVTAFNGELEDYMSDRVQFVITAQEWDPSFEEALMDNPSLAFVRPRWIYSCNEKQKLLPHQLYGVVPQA
UniProt P09874: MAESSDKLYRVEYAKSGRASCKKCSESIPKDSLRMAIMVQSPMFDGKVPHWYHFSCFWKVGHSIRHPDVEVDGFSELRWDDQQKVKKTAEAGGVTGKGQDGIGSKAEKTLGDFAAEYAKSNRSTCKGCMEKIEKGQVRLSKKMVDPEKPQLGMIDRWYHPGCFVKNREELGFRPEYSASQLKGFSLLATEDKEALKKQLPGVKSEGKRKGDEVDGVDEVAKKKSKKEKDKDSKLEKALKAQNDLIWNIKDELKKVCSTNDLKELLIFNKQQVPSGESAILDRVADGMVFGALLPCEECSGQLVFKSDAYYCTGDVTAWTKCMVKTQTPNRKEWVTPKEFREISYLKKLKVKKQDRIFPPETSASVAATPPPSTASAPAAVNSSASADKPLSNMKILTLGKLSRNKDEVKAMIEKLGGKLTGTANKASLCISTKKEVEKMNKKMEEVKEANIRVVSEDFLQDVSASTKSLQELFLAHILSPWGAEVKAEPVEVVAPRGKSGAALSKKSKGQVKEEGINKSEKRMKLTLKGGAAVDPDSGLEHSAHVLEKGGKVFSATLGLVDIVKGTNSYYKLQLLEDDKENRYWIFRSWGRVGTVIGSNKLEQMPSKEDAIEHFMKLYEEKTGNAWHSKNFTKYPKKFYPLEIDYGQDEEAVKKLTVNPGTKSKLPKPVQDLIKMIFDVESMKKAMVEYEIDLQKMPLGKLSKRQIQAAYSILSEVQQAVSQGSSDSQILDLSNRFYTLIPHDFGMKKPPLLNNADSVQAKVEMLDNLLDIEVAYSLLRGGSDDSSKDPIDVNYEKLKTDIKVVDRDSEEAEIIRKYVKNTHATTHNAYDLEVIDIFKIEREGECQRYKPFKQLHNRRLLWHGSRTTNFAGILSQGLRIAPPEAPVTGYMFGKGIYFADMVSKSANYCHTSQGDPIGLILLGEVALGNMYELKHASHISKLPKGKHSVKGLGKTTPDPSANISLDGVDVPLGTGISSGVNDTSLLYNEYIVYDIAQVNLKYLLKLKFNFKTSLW
UniProt P12004: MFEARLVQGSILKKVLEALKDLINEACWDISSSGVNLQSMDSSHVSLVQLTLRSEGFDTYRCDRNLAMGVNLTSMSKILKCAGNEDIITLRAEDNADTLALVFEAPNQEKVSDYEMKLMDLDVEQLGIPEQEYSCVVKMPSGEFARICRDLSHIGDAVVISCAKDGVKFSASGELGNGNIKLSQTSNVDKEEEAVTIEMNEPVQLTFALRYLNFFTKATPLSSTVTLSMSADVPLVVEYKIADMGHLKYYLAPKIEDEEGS

Molecular target: XRCC1-LacI-RFP (UniProt P18887)
Experiment: F2H assay, BHK cells

binding | Substance
binds | GFP-PARP-1 (from UniProt P09874 1-1014)
binds | GFP-PCNA (from UniProt P12004 1-261)
